{"sequences": {"note": "Sequences of proteins named here, by UniProt entry; tags and fusion partners are left off. Residues count along the entry.", "UniProt Q96KQ7, 913-1193 limits assumed": "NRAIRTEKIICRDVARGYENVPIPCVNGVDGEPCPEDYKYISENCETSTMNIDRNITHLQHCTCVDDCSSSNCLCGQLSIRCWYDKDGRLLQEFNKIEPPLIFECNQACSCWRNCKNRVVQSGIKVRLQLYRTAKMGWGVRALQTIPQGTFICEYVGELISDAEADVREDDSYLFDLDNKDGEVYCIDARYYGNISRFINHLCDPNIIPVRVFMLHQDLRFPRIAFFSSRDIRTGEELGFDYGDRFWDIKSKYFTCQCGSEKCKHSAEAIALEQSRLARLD"}, "source": "PubChem BioAssay AID504332", "about": "(National Center for Advancing Translational Sciences (NCATS), 2011)", "note": "Hit rate of the full screen: of about 350,000 compounds, about 31,000 (8.9%) were called active. Listed are the inconclusive results; actives and inactives stand elsewhere. Calls follow the shape of the dose curve; as a rule, active = well fitted inhibition curve with a large enough effect; inconclusive = small, poorly fitted or top-dose-only effect; inactive = no such curve, though single readings can be large or run the other way. Some tests of the compounds listed are not included; inactive here does not mean inactive elsewhere. Potency is read from the fitted curve at half-maximal effect."}
{"biological_target": "Histone-lysine N-methyltransferase EHMT2 (Homo sapiens) (UniProt Q96KQ7)", "assay": "qHTS Assay for Inhibitors of Histone Lysine Methyltransferase G9a; also: nearly all actives have a fitted effect of over 75% in size", "details": "G9a H3K9 monomethylation, AlphaScreen, 2 h"}
{"smiles": "Cc1ccccc1C(=O)NCC1(N2CCCCC2)CCCCC1", "Potency": "inconclusive: 89.1 µM"}
{"smiles": "O=C(NCC1(N2CCCCC2)CCCCC1)c1cc(F)c(F)cc1Cl", "Potency": "inconclusive: 89.1 µM"}
